Entries after “also recorded” stand apart in the source; their conditions may differ. Not every detail of the peptide structures is certain; ends, links or a residue may be inferred. Where a SMILES comes first, the peptide text is derived from it. [ ]: non-standard residue; d: D form.
Key:
[1] = test system: NS20Y neuroblastoma cells; assay: NS20Y neuroblastoma neurite outgrowth assay; assay type: cell-based; conditions: for neurite outgrowth (neuritogenic activity): 0.5-8 ng/ml peptide, 24 hours, DMEM 0.5% FCS
Procedure: NS20Y neuroblastoma cells were grown in DMEM containing 10% fetal calf serum (FCS). Cells were removed with trypsin and plated in 30 mm petri dishes onto glass coverslips. After 20-24 hours, the medium was replaced with 2 ml DMEM containing 0.5% FCS plus 0, 0.5, 1, 2, 4 or 8 ng/ml effector peptides. Cells were cultured for an additional 24 hours, washed with PBS and fixed with Bouin's solution (saturated aqueous picric acid/formalin/acetic acid 15:5:1) for 30 minutes. Fixative was removed with PBS and neurite outgrowth was scored under a phase contrast microscope. […] At least 200 cells were scored in different portions of each dish to determine the percentage of neurite bearing cells and assays were performed in duplicate.
Increased neurite outgrowth was evident using as little as 0.5 ng/ml peptide.

[2] = test system: newborn mouse cerebellar explants; assay: Ex vivo myelination assay in newborn mouse cerebellar explants; assay type: cell-based; conditions: added on second day, observed for 22 days in culture; saposin C positive control 1-10 μg/ml
Procedure: Newborn mouse cerebellar explants are prepared according to Satomi (Zool. Sci. 9:127-137, 1992). Neurite outgrowth and myelination are observed for 22 days in culture, during the period when the newborn mouse cerebellum normally undergoes neuronal differentiation and myelination begins. D2, D3, D4, D5 or another peptide including SEQ ID NO: 12 is added on the second day after preparation of the explants (three control and three treated explants) and outgrowth of neurites and myelination are assessed under a bright field microscope with a video camera. Saposin C is used as a positive control at a concentration of between about 1 and 10 μg/ml.

[3] = test system: sensory neurons from adult rat dorsal root ganglia; assay: Ex vivo adult rat sensory neurite outgrowth (dorsal root ganglia neurons); assay type: cell-based; conditions: 0.5 ng/ml, three days of treatment
[4] = test system: experimental allergic encephalomyelitis (EAE); assay type: in vivo, Lewis rat
[5] = 200 μg/kg intramuscularly for 8 days, day 22

Structure (SMILES)	neurite outgrowth activity compared with TX14(A) [1]	neurite outgrowth (neuritogenic activity) [1]	stimulation of myelination [2]	length of longest neurites versus control (non-RI) peptide 15-2 or untreated controls [3]	stride length (measure of muscle weakness) ([4]; 200 μg/kg intramuscularly daily for 8 days from day 14, scored day 22, p<0.018 vs vehicle)	cholesterol ester content in brain (marker of myelin breakdown) [4, 5]	reduction of average lesion size [4, 5]	reduction of number of spinal cord lesions ([4]; 200 μg/kg intramuscularly, after 10 days of treatment (so in the source)) [%]	lesion severity ([4]; systemic administration)
CC(C)C[C@@H](NC(=O)[C@@H](CC(C)C)NC(=O)[C@@H](CC(=O)O)NC(=O)[C@@H](CC(N)=O)NC(=O)[C@@H](CC(N)=O)NC(=O)[C@@H](C)NC(=O)[C@H](NC(=O)[C@@H](CCC(=O)O)NC(=O)[C@@H](CCC(=O)O)NC(=O)[C@@H](CC(C)C)NC(=O)[C@@H](CC(C)C)NC(=O)[C@H](N)Cc1ccc(O)cc1)[C@H](C)O)C(=O)O [peptide D4] (H-[dY][dL][dL][dE][dE][dT][dA][dN][dN][dD][dL][dL]-OH; N-terminus and C-terminus assumed)	somewhat more active than TX14(A)	exhibited neuritogenic activity; also recorded: induced neurite outgrowth	to a similar extent as with saposin C						
CC(C)C[C@@H](N)C(=O)N[C@H](CC(C)C)C(=O)N[C@H](CCC(=O)O)C(=O)N[C@H](CCC(=O)O)C(=O)N[C@@H](C(=O)N[C@H](C)C(=O)N[C@H](CC(N)=O)C(=O)N[C@H](CC(N)=O)C(=O)N[C@H](CC(=O)O)C(=O)N[C@H](CC(C)C)C(=O)N[C@H](CC(C)C)C(=O)O)[C@H](C)O [peptide D5] (H-[dL][dL][dE][dE][dT][dA][dN][dN][dD][dL][dL]-OH; N-terminus and C-terminus assumed)	somewhat more active than TX14(A)	exhibited neuritogenic activity; also recorded: induced neurite outgrowth	to a similar extent as with saposin C	approximately three times longer	returned to normal	significant reduction	about 70%	70	reduces lesion severity
